# Laboratory results as given in PubChem BioAssay AID1117359 (Southern Research Institute, 2015).
# Where “and” joins values, the source holds several entries; their conditions need not be identical. Equal entries are not always repeated. Screen size: about 1,500 compounds; about 460 (31%) were called active.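 The calls were made as follows: active = viability at or below 80% at any tested concentration, marking the compound as toxic; inactive = the rest.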 The list shows a part of the results, in another mix than the full data. Entries with a potency or affinity are not part of this list.
# Assay: viability loss in THP-1 monocytes – THP-1 cells, cytotoxicity control for Vif-APOBEC3G degradation inhibitor project, dose response (AID 1117359)
# Conditions: THP-1 viability, CellTiter-Glo luminescence, 72 h; at 40 µM (top of the series)
row,Structure (SMILES),viability
1,COc1ccc(-c2nnc(-c3ccc(N)cc3)o2)cc1,inactive: 89.8%
2,CCC1=NN2C(=N)/C(=C\c3ccc(SCc4ccco4)o3)C(=O)N=C2S1,inactive: 107%
3,CCOC(=O)c1ccc(CC(=O)c2ccc(O)c(O)c2O)o1,inactive: 97.4%
4,NS(=O)(=O)c1ccc(N=Nc2c[nH]c(=O)c(O)c2)cc1,inactive: 87.9% and inactive: 88.2%
5,CN1C(=O)/C(=C/c2ccco2)SC1=Nc1cccc(C(=O)O)c1,inactive: 106%
6,CN(C)NC(=S)NC1CCS(=O)(=O)C1 (stereo not drawn),inactive: 98.9%
7,CC(Sc1nnc(C2CC2)n1C)C(=O)Nc1ccc(N2CCOCC2)cc1 (stereo not drawn),inactive: 87.6%
8,O=C(c1ccc(=O)oc1)N1CCCc2ccccc21,inactive: 84.4%
9,Cc1ccc2c(c1C)NC(C(=O)O)C1CC=CC21 (stereo not drawn),inactive: 99.5% and inactive: 103%
10,CNc1ccc(Br)cc(C(=O)/C=C/c2ccc(Cl)cc2Cl)c1=O,inactive: 94.8%
11,O=C(CCS(=O)(=O)c1ccc(Br)cc1)N1CCN(c2ccc(F)cc2)CC1,inactive: 90.7%
12,Cc1ccnc(N2CCCC(C(=O)Nc3cc(F)ccc3C)C2)n1 (stereo not drawn),inactive: 104%
13,COc1cc(OC)c2c(O)c3c(c(-c4c5c(c(O)c6c(OC)cc(OC)cc46)CO[C@@H](C)[C@H]5O)c2c1)[C@H](O)[C@H](C)OC3,inactive: 115%
14,Cc1ccc(C=C2C(Cl)=C(Cl)C(Cl)=C2Cl)cc1,inactive: 91%
15,Cc1nc(C)c2c(c1C(F)(F)F)-c1ccccc1C2(F)F,inactive: 98.1%
16,CC1(C)C2CCC1(CS(=O)(=O)Nc1cccc(S(N)(=O)=O)c1)C(=O)C2 (stereo not drawn),inactive: 87.3%
17,Cn1nccc1NC(=O)Nc1ccc(Cl)cc1,inactive: 100%
18,CN(C(=S)Nc1cccnc1)c1ccc(O)cc1,inactive: 113%
19,Cc1cc(O)c(-c2cc(O)c(C)cc2O)cc1O,inactive: 109%
20,O=C(Nc1ccc2nc(-c3ccco3)c(-c3ccco3)nc2c1)NC1CC1,inactive: 92.4%
21,O=C(O)c1ccc(S(=O)(=O)c2ccc([N+](=O)[O-])cc2[N+](=O)[O-])cc1,inactive: 97.5%
22,c1coc(-c2nc3nc4ccccc4n3nc2-c2ccco2)c1,inactive: 81.1%
23,CN1CCN(C(CNC(=O)c2ccc(Br)o2)c2ccc(F)cc2)CC1 (stereo not drawn),inactive: 96.6%
24,COc1ccc(Cl)cc1NC(=O)CCS(=O)(=O)c1ccc(Br)cc1,inactive: 92.8%

row,Structure (SMILES),viability
1,CN(C)c1cc(Cl)c2nonc2c1N,inactive: 110%
2,CC(C)NC(=O)c1cc(-c2ccco2)nn1-c1ccc(Cl)cc1,inactive: 97.9%
3,O=C(N/N=C/C=C/c1ccco1)c1cccs1,inactive: 97.2%
4,CC(C)(C)c1ccc(C(=O)Oc2ccc3c(c2)OCC3=O)cc1,inactive: 122%
5,O=C(O)/C(=C/c1ccco1)NC(=O)c1ccccc1,inactive: 89.8%
6,COc1ccc(CNS(=O)(=O)c2cc(Br)cc3c2N(C(C)=O)C(C)C3)cc1 (stereo not drawn),inactive: 94.4%
7,O=c1oc2c3c4c(cc2s1)CCCN4CCC3,inactive: 92.3%
8,COc1ccc(/C=N/NC(=O)Cn2cnc3c2c(=O)n(C)c(=O)n3C)c(OC)c1OC,inactive: 102%
9,CC(OC(=O)c1ccc([N+](=O)[O-])o1)C(=O)NC1CCCCC1C (stereo not drawn),inactive: 106%
10,CC(/C=C/c1ccco1)=N\NC(=O)c1cccnc1,inactive: 84.8%
11,S=c1[nH]nc(-c2cccnc2)n1/N=C/C=C/c1ccco1,inactive: 97.7%
12,Cc1ccc2c(c1)C1C=CCC1C(C(=O)O)N2 (stereo not drawn),inactive: 104%
13,CCOC(=O)N1CCC(NC(=O)c2ccc(OC)c(CN3CC(=O)N4CCCC4C3=O)c2)CC1 (stereo not drawn),inactive: 114%
14,O=C(O)CC(Cn1cnnn1)c1ccccc1 (stereo not drawn),inactive: 110%
15,COC(=O)c1c(C)[nH]c(C=O)c1-c1ccccc1,inactive: 90.8%
16,CC1CCN(S(=O)(=O)c2ccc(C(=O)NCc3ccc4c(c3)OCO4)cc2)CC1,inactive: 89.1%
17,CCN(CC)c1ccc(NC2CC(=O)N(CCc3ccc(OC)cc3)C2=O)cc1 (stereo not drawn),inactive: 111%
18,N=C(c1cccc([N+](=O)[O-])c1)N1CCCCCC1,inactive: 109%
19,NC1=NC(=O)/C(=C\c2ccco2)S1,inactive: 90%
20,Cc1sc2nc(C)n(/N=C/c3ccccc3O)c(=O)c2c1C,inactive: 105%
21,Cc1ccc(NC(=O)CN(C)C(=O)c2cc(-c3ccco3)nc3ccccc23)cc1,inactive: 84.3%
22,Nc1c(C(=O)NC2CC2)sc2nc3c(c(-c4ccco4)c12)CC/C3=C/c1ccco1,inactive: 100%
23,COc1ccc(NC(=O)O/N=C/c2ccccc2Cl)cc1,inactive: 102%
24,O=C(Cc1cccs1)N/N=C/C=C/c1ccco1,inactive: 124%

# Two of these compounds, set out differently.
row	Structure (SMILES)	viability
8	COc1ccc(/C=N/NC(=O)Cn2cnc3c2c(=O)n(C)c(=O)n3C)c(OC)c1OC	inactive: 102%
23	COc1ccc(NC(=O)O/N=C/c2ccccc2Cl)cc1	inactive: 102%
